Source: the supplement of paper PMC7661543
± gives the standard deviation of the averaged measurements. The effect of the compound repeats well; differences between the knockouts mostly do not.

Experiments:
Experiment in all cases: relative cell number vs DMSO control (72 h) (% of DMSO); higher = less growth inhibition (more cells)
BT-20 = system: BT-20
Experimental: (§1)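 QMAP-Seq: a pool of 5 breast cancer cell lines (ZR-75-1, SKBR3, HCC-38, MDA-MB-231, BT-20), each carrying 12 doxycycline-inducible Cas9 sgRNA perturbations (11 knockouts plus non-targeting sgNT), was treated with compounds for 72 h at four 10-fold doses (10 nM-10 uM or 1 nM-1 uM range). Barcodes were amplified and sequenced, and cell number was interpolated from 293T spike-in standard curves. The result is expressed as % of the median of DMSO wells. Two biological replicates.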

SKBR3 = system: SKBR3
Experimental: as §1

ZR-75-1 = system: ZR-75-1
Experimental: as §1

c1cc(Nc2cc(C3CC3)[nH]n2)nc(Nc2ccc3nc[nH]c3c2)n1 [APY29]
relative cell number
Conditions | BT-20 | SKBR3 | ZR-75-1
sgRNA knockout: sgATF3, 10 nM | 115 ± 27 | 108 ± 6.7 | 122 ± 52
sgRNA knockout: sgATF3, 100 nM | 95.9 ± 11 | 63.2 ± 16 | 80.5 ± 4.6
sgRNA knockout: sgATF3, 1000 nM | 73.2 ± 1.8 | 15.1 ± 4.5 | 30.5 ± 2
sgRNA knockout: sgATF3, 10000 nM | 37.8 ± 14 | 8.072 ± 0.061 | 13.3 ± 3.6
sgRNA knockout: sgATF4, 10 nM | 118 ± 38 | 89 ± 12 | 123 ± 18
sgRNA knockout: sgATF4, 100 nM | 106 ± 11 | 45.4 ± 4.5 | 74 ± 17
sgRNA knockout: sgATF4, 1000 nM | 75.8 ± 6.6 | 14.3 ± 0.42 | 40.7 ± 6.7
sgRNA knockout: sgATF4, 10000 nM | 40.9 ± 7.9 | 6.92 ± 0.14 | 24.8 ± 1.6
sgRNA knockout: sgATF6, 10 nM | 105 ± 21 | 107 ± 6 | 157 ± 22
sgRNA knockout: sgATF6, 100 nM | 92.8 ± 17 | 54.4 ± 20 | 83.8 ± 5.2
sgRNA knockout: sgATF6, 1000 nM | 92.7 ± 3.6 | 13.8 ± 5 | 28.1 ± 4.6
sgRNA knockout: sgATF6, 10000 nM | 34.9 ± 2.8 | 7.62 ± 0.75 | 18.3 ± 1.4
sgRNA knockout: sgATG7, 10 nM | 110 ± 13 | 97 ± 34 | 119 ± 6.2
sgRNA knockout: sgATG7, 100 nM | 82.8 ± 21 | 38.7 ± 0.7 | 61 ± 3.6
sgRNA knockout: sgATG7, 1000 nM | 89.57 ± 0.25 | 14.6 ± 1 | 27.4 ± 11
sgRNA knockout: sgATG7, 10000 nM | 36.7 ± 4.4 | 6.51 ± 0.11 | 17.4 ± 3.8
sgRNA knockout: sgERN1, 10 nM | 111 ± 3.5 | 103 ± 6.6 | 110 ± 31
sgRNA knockout: sgERN1, 100 nM | 93.9 ± 14 | 54.8 ± 2.6 | 78.4 ± 1.7
sgRNA knockout: sgERN1, 1000 nM | 70.4 ± 7 | 15.3 ± 2.4 | 25.3 ± 5.2
sgRNA knockout: sgERN1, 10000 nM | 36.3 ± 3.1 | 6.23 ± 3.2 | 26.2 ± 3.7
sgRNA knockout: sgHSF1, 10 nM | 103 ± 9.4 | 84.5 ± 0.95 | –
sgRNA knockout: sgHSF1, 100 nM | 79.6 ± 7.1 | 38.2 ± 11 | –
sgRNA knockout: sgHSF1, 1000 nM | 64.4 ± 7 | 15.8 ± 2.5 | –
sgRNA knockout: sgHSF1, 10000 nM | 36.8 ± 7.4 | 5.92 ± 0.37 | –
sgRNA knockout: sgHSF2, 10 nM | 128 ± 50 | 86.7 ± 1.6 | 131 ± 67
sgRNA knockout: sgHSF2, 100 nM | 76.6 ± 21 | 41.1 ± 2.3 | 60.9 ± 11
sgRNA knockout: sgHSF2, 1000 nM | 73.8 ± 1.6 | 13.8 ± 4 | 26.1 ± 8.4
sgRNA knockout: sgHSF2, 10000 nM | 42.6 ± 0.36 | 6.75 ± 2.3 | 17.4 ± 2
sgRNA knockout: sgKEAP1, 10 nM | 112 ± 25 | 92.8 ± 4.1 | –
sgRNA knockout: sgKEAP1, 100 nM | 80.3 ± 8.6 | 53.6 ± 7.6 | –
sgRNA knockout: sgKEAP1, 1000 nM | 76.8 ± 7.5 | 14 ± 4.2 | –
sgRNA knockout: sgKEAP1, 10000 nM | 41.8 ± 2.6 | 6.7 ± 0.72 | –
sgRNA knockout: sgNFE2L2, 10 nM | 105 ± 13 | 89.8 ± 8.1 | 103 ± 10
sgRNA knockout: sgNFE2L2, 100 nM | 85.6 ± 16 | 68.2 ± 4.6 | 71.6 ± 12
sgRNA knockout: sgNFE2L2, 1000 nM | 76.2 ± 11 | 15.2 ± 0.37 | 27.8 ± 8.4
sgRNA knockout: sgNFE2L2, 10000 nM | 33.6 ± 3.3 | 5.54 ± 1.4 | 19.4 ± 4.2
sgRNA knockout: sgSLC35F2, 10 nM | 109 ± 4.8 | 106 ± 4.5 | 109 ± 4.1
sgRNA knockout: sgSLC35F2, 100 nM | 88.7 ± 3.7 | 52.3 ± 17 | 46.7 ± 32
sgRNA knockout: sgSLC35F2, 1000 nM | 84.4 ± 13 | 11.3 ± 2.5 | 23.6 ± 3.6
sgRNA knockout: sgSLC35F2, 10000 nM | 45.6 ± 1.9 | 4.42 ± 0.8 | 23.4 ± 4
sgRNA knockout: sgXBP1, 10 nM | 104 ± 7.7 | 102 ± 22 | 118 ± 42
sgRNA knockout: sgXBP1, 100 nM | 91.3 ± 8.6 | 46.6 ± 9.3 | 75.9 ± 6.5
sgRNA knockout: sgXBP1, 1000 nM | 80.1 ± 6.5 | 11.3 ± 4.1 | 25.8 ± 4.6
sgRNA knockout: sgXBP1, 10000 nM | 41.7 ± 2.9 | 7.2 ± 6.7 | 17.7 ± 1.5

CN(C)C(=O)c1ccc(S(=O)(=O)c2ccc(NC(=O)[C@@](C)(O)C(F)(F)F)c(Cl)c2)cc1 [AZD7545]
relative cell number
Conditions | BT-20 | SKBR3 | ZR-75-1
sgRNA knockout: sgATF3, 10 nM | 107 ± 8.4 | 107 ± 13 | 121 ± 5.5
sgRNA knockout: sgATF3, 100 nM | 90.3 ± 0.27 | 103.6 ± 0.66 | 79.7 ± 8.4
sgRNA knockout: sgATF3, 1000 nM | 101 ± 7.1 | 84.8 ± 36 | 85.6 ± 31
sgRNA knockout: sgATF3, 10000 nM | 88.8 ± 8.3 | 91 ± 29 | 44.5 ± 1.7
sgRNA knockout: sgATF4, 10 nM | 85.58 ± 0.5 | 120 ± 15 | 112 ± 29
sgRNA knockout: sgATF4, 100 nM | 114 ± 10 | 89.2 ± 1.9 | 117 ± 6.1
sgRNA knockout: sgATF4, 1000 nM | 107 ± 19 | 92.1 ± 32 | 90 ± 5
sgRNA knockout: sgATF4, 10000 nM | 90.3 ± 4.8 | 81.4 ± 9.6 | 32.7 ± 3.8
sgRNA knockout: sgATF6, 10 nM | 105 ± 11 | 94.8 ± 3 | 75.2 ± 8.8
sgRNA knockout: sgATF6, 100 nM | 106 ± 12 | 98.2 ± 14 | 97.1 ± 20
sgRNA knockout: sgATF6, 1000 nM | 85.2 ± 0.46 | 105 ± 22 | 88.1 ± 17
sgRNA knockout: sgATF6, 10000 nM | 95.9 ± 17 | 67.9 ± 16 | 21.1 ± 0.71
sgRNA knockout: sgATG7, 10 nM | 91.5 ± 3.5 | 101 ± 28 | 110 ± 4.4
sgRNA knockout: sgATG7, 100 nM | 107 ± 7 | 96.2 ± 10 | 106 ± 1.4
sgRNA knockout: sgATG7, 1000 nM | 103 ± 28 | 101 ± 12 | 136 ± 28
sgRNA knockout: sgATG7, 10000 nM | 80.2 ± 9.8 | 83.9 ± 9.7 | 47.9 ± 5.2
sgRNA knockout: sgERN1, 10 nM | 107 ± 9.1 | 104 ± 16 | 118 ± 21
sgRNA knockout: sgERN1, 100 nM | 88.5 ± 1.9 | 112 ± 24 | 104 ± 8.4
sgRNA knockout: sgERN1, 1000 nM | 98.3 ± 9.7 | 98.6 ± 19 | 116 ± 17
sgRNA knockout: sgERN1, 10000 nM | 76.1 ± 11 | 90.6 ± 8.1 | 51.1 ± 12
sgRNA knockout: sgHSF1, 10 nM | 106 ± 11 | 97.29 ± 0.62 | –
sgRNA knockout: sgHSF1, 100 nM | 85.4 ± 3.9 | 80.9 ± 15 | –
sgRNA knockout: sgHSF1, 1000 nM | 104 ± 29 | 91.3 ± 26 | –
sgRNA knockout: sgHSF1, 10000 nM | 78.3 ± 2 | 73 ± 6.1 | –
sgRNA knockout: sgHSF2, 10 nM | 114.6 ± 0.9 | 107 ± 14 | 120 ± 7
sgRNA knockout: sgHSF2, 100 nM | 96.6 ± 21 | 84.9 ± 6.7 | 89.3 ± 18
sgRNA knockout: sgHSF2, 1000 nM | 99.5 ± 4.9 | 96.1 ± 35 | 118 ± 26
sgRNA knockout: sgHSF2, 10000 nM | 89.4 ± 8.2 | 80.6 ± 24 | 48.8 ± 5.4
sgRNA knockout: sgKEAP1, 10 nM | 105 ± 5.4 | 91.1 ± 5 | –
sgRNA knockout: sgKEAP1, 100 nM | 88.4 ± 10 | 91.1 ± 2 | –
sgRNA knockout: sgKEAP1, 1000 nM | 95.3 ± 2.2 | 83.3 ± 41 | –
sgRNA knockout: sgKEAP1, 10000 nM | 88.8 ± 5.3 | 81.4 ± 4 | –
sgRNA knockout: sgNFE2L2, 10 nM | 98 ± 5.9 | 98.6 ± 35 | 99.9 ± 12
sgRNA knockout: sgNFE2L2, 100 nM | 80.4 ± 6.5 | 87.3 ± 1.9 | 105 ± 28
sgRNA knockout: sgNFE2L2, 1000 nM | 88.3 ± 4.2 | 89.8 ± 20 | 93 ± 49
sgRNA knockout: sgNFE2L2, 10000 nM | 57 ± 3.8 | 65.7 ± 7.9 | 50.5 ± 17
sgRNA knockout: sgSLC35F2, 10 nM | 115 ± 14 | 97.1 ± 22 | 130 ± 20
sgRNA knockout: sgSLC35F2, 100 nM | 90.2 ± 5.5 | 99.2 ± 12 | 112 ± 31
sgRNA knockout: sgSLC35F2, 1000 nM | 101 ± 14 | 88.7 ± 6.2 | 135 ± 50
sgRNA knockout: sgSLC35F2, 10000 nM | 77.4 ± 5.6 | 74 ± 4.3 | 39.3 ± 14
sgRNA knockout: sgXBP1, 10 nM | 123 ± 28 | 109 ± 42 | 87.6 ± 4.1
sgRNA knockout: sgXBP1, 100 nM | 89.9 ± 3.7 | 92.7 ± 3.9 | 83.7 ± 26
sgRNA knockout: sgXBP1, 1000 nM | 109 ± 7 | 98.2 ± 35 | 95.99 ± 0.71
sgRNA knockout: sgXBP1, 10000 nM | 83.4 ± 2.1 | 83.3 ± 23 | 46.7 ± 16
